No constants are given. Whether binding was seen depends on the method and setting. Binding seen in cells or lysates may run through a third protein. Some results given as binding are weak or reduced against the parent protein; the word gives no strength. For some assays here: Where a sequence is shown, tags or fusion partners need not be part of it.
Experiments:
[1] = target: BCL2 (endogenous) (human (endogenous in HL60, THP-1, NB4, U937 and primary AML cells)), P10415; assay: pull-down; conditions: remark: other sources report otherwise
[2] = target: BCL2-mCherry (human), P10415; assay: pull-down; conditions: remark: other sources report otherwise
[3] = target: BAX (endogenous) (human (endogenous in HL60, THP-1, NB4, U937, PC9 and primary AML cells)), Q07812; assay: co-IP; conditions: remark: other sources report otherwise
[4] = target: MCL1-mCherry (human) (UniProt Q07820); assay: pull-down

Chains of the proteins cited; added tags and fusions are not shown.
UniProt Q07820: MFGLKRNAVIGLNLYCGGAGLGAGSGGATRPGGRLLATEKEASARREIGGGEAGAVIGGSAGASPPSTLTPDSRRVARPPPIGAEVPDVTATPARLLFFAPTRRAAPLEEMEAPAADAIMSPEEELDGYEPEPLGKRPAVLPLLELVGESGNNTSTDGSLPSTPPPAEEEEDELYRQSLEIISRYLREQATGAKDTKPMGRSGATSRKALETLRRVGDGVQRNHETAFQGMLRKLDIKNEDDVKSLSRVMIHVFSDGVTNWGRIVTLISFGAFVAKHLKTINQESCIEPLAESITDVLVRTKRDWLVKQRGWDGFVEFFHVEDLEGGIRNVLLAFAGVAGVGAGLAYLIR

B1: BAD-eGFP, Q92934 1-168 (protein)
chain: MFQIPEFEPSEQEDSSSAERGLGPSPAGDGPSGSGKHHRQAPGLLWDASHQQEQPTSSSHHGGAGAVEIRSRHSSYPAGTEDDEGMGEEPSPFRGRSRSAPPNLWAAQRYGRELRRMSDEFVDSFKKGLPRPKSAGTATQMRQSSSWTRVFQSWWDRNLGRGSSAPSQ
Q: Which results are given for B1?
A: binding [1]: binds; binding [2]: binds

B2: BAK (endogenous), Q16611 1-211 (protein)
chain: MASGQGPGPPRQECGEPALPSASEEQVAQDTEEVFRSYVFYRHQQEQEAEGVAAPADPEMVTLPLQPSSTMGQVGRQLAIIGDDINRRYDSEFQTMLQHLQPTAENAYEYFTKIATSLFESGINWGRVVALLGFGYRLALHVYQHGLTGFLGQVTRFVVDFMLHHCIARWIAQRGGWVAALNLGNGPILNVLVVLGVVLLGQFVVRRFFKS
Q: B2 was tested. Which binding [3] did it give?
A: Its binding is “binds”.

B3: NOXA-eGFP, Q13794 1-54 (protein)
chain: MPGKKARKNAQPSPARAPAELEVECATQLRRFGDKLNFRQKLLNLISKLFCSGT
Q: Which binding [2] does the source give for B3 here?
A: The binding was “no binding”.

B4: BAD-eGFP (protein, UniProt Q92934 1-168)
chain: B1 chain
Q: Which binding [4] does the source give for B4 here?
A: Its binding is “no binding”.

— paper doi:10.1101/2023.01.16.524337
